Reference: article PMC6470953, “Symmetrical Modification of Minimized Dermaseptins to Extend the Spectrum of Antimicrobials with Endotoxin Neutralization Potency” (International Journal of Molecular Sciences, 2019)
Where no end group is shown, it is not given here.

The substances below were run on bacteria over hRBCs (assay: Therapeutic index (MHC5/GM)). Details: MHC5 >256 μM counted as 512 μM.

| Substance | Therapeutic index |
| --- | --- |
| WFKAAAKAAAKFW-NH2 [WF] | 23.5 |
| WIKAAAKAAAKIW-NH2 [WI] | 14.8 |
| WVKAAAKAAAKVW-NH2 [WV] | 3.4 |
| WWKAAAKAAAKWW-NH2 [WW] | 64.0 |
